The other results are listed elsewhere or left out. The main result of the screen is listed elsewhere. These columns were measured beside it and carry no call. Most of these compounds were active or inconclusive in the main read-out, so they are no random draw. Words in brackets tell the shape of the fitted curve; partial curves, single points and poor fits give uncertain potencies.
Assay: qHTS Assay for Lipid Storage Modulators in Drosophila S3 Cells;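 for cell number change: cells counted by Cell Tracker Red CMTPX staining in the red channel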
Details: BODIPY lipid droplet fluorescence, 18-24 h; for cell number change: measured here: cell count max response, cells fed with added oleic acid
Outline: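 Laser-scanning cytometry quantifies lipid droplet accumulation (500–530 nm total intensity; droplet/cell object ratio) in oleic acid-fed (400 uM added) Drosophila S3 cells treated with a concentration series. 20 uM Triacsin C defined 100% inhibition.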

[1] = measured here: lipid fluorescence (Fed channel) AC50, cells fed with added oleic acid
[2] = measured here: cell number channel AC50, cells fed with added oleic acid

Compound	AC50 [1]	cell number change [%]	AC50 [2]
CCOc1nc(C)ccc1-c1noc(-c2ccco2)n1	6.51 µM [rising, single point]	–	–
CCOc1ccc(NC(=O)CC2C(=O)N(c3ccccc3)C(=O)N2Cc2ccccn2)cc1 (centres undefined)	13 µM [rising, partial curve]	67	9.2 µM [rising, partial curve]
O=C(COc1ccccc1)NNC1=NS(=O)(=O)c2ccccc21	0.164 µM [falling, full curve]	11.1	1.16 µM [falling, partial curve]
Cc1ccc(S(=O)(=O)N(C)c2ccc(C(=O)Nc3cccnc3)cc2)cc1	–	-6.93	–
COc1ccc(C(=O)NC2CCN(C(=S)Nc3ccccc3)CC2)cc1	29.1 µM [rising, single point]	28	–
O=C(O)C1=C[C@@H](C2CC2)C[C@@H](OCc2ccc(CO)cc2)O1	29.1 µM [falling, single point]	-35.3	–
COc1cc(C2C(C#N)=C(N)Oc3cc(C)n(CCc4ccccc4)c(=O)c32)cc2c1OCO2 (centres undefined)	1.84 µM [rising, partial curve]	–	–
CC(C)C[C@H]1CN=C(N(C)C)N1CC1CCCCCC1	3.66 µM [rising, full curve, poor fit]	14.7	–
COc1cccc(/C=N/NC(=O)c2ccc([N+](=O)[O-])cc2Cl)c1O	5.8 µM [falling, partial curve]	-35.8	20.6 µM [falling, single point]
Cc1cc(C)nc(SC2CCCCC2NS(=O)(=O)c2ccccc2)n1 (centres undefined)	3.26 µM [rising, single point]	5.56	–
Cc1c(OC(C)C(=O)NCC2CCC(C(=O)O)CC2)ccc2c1oc(=O)c1ccccc12 (centres undefined)	0.116 µM [rising, full curve, poor fit]	23	–
Cc1ccc(S(=O)(=O)Nc2ncnc3ccccc23)cc1	–	14.5	–
Cc1cccc(CCNC(=O)CCNS(=O)(=O)c2cc(Br)cnc2N)c1	6.51 µM [rising, partial curve]	30.7	14.6 µM [rising, single point]
Cc1ccc(CNc2c(C=O)c(=O)[nH]c3ccccc23)cc1	–	21.3	–
CC(C)NC(=O)C1CCN(Cc2cccc(Oc3ccccc3)c2)CC1	–	32.4	23.1 µM [rising, partial curve, poor fit]
O=C1NCCN1C(=O)c1ccccc1F	14.6 µM [falling, partial curve, poor fit]	3.2	–
CCCN(CC(=O)Nc1ccccc1OC)C(=O)c1cc(-c2ccccc2)nn1-c1ccccc1	–	13.7	6.51 µM [falling, partial curve, poor fit]
Cc1nc2ccccn2c1/C(O)=C1\C(=O)C(=O)N(CCCn2ccnc2)C1c1ccncc1 (centres undefined)	4.11 µM [falling, single point]	76.4	–
O=S(=O)(Nc1ccccc1N1CCCCC1)c1ccc(F)cc1F	6.51 µM [rising, partial curve]	–	0.58 µM [rising, single point]

Gathered by group, those above containing fluorine
Compound	AC50 [1]	cell number change [%]	AC50 [2]
O=C1NCCN1C(=O)c1ccccc1F	14.6 µM [falling, partial curve, poor fit]	3.2	–
O=S(=O)(Nc1ccccc1N1CCCCC1)c1ccc(F)cc1F	6.51 µM [rising, partial curve]	–	0.58 µM [rising, single point]

The results go on.

Compound	AC50 [1]	cell number change [%]	AC50 [2]
O=C(Nc1ccc2c(c1)OCO2)Nc1ccc(F)cc1F	35.5 µM [rising, single point]	0.438	–
CS(=O)(=O)Cc1cc(N2CCCC2)nc(-c2ccccc2)n1	–	59.8	0.0058 µM [rising, full curve, poor fit]
C=CCOc1nc(-c2ccncc2)nc2ccccc12	20.6 µM [falling, single point]	-34.5	9.2 µM [falling, partial curve]
CC1CCCCN1C(=O)c1cnn2c(C(F)(F)F)cc(-c3ccco3)nc12 (centres undefined)	6.51 µM [rising, full curve, poor fit]	74.9	7.31 µM [rising, partial curve]
COc1ccc(CNC(=O)COC(=O)c2cc(-c3ccc(Cl)s3)nc3ccccc23)cc1	0.116 µM [rising, full curve, poor fit]	-10.3	–
Cc1ccc(NC(=O)/C(=C\c2ccc([N+](=O)[O-])cc2)NC(=O)c2ccccc2)cc1	–	-17	–
COc1ccc(C(=O)NC(=S)N2CCC(C)CC2)cc1	3.26 µM [rising, partial curve]	91.2	25.9 µM [rising, partial curve]
CCOCc1cn(CC(=O)c2ccc(Cl)cc2)c(C)nc1=N	–	33.8	3.66 µM [rising, partial curve, poor fit]
Cc1ccc(SCC(=O)NC(=O)NC(C)C)c(C)c1	–	-11.3	–
Cc1ccc(-c2noc(CCC(=O)Nc3cccc(C#N)c3)n2)cc1	0.146 µM [falling, single point]	-17.7	–
CCCc1[nH]nc2c1C(c1ccc(OCCN3CCOCC3)c(OCC)c1)C(C#N)=C(N)O2 (centres undefined)	–	13.5	–
Cc1cc2c(cc1S(=O)(=O)Nc1cccc(C)c1C)OCC(=O)N2	6.51 µM [falling, single point]	4.03	–
O=[N+]([O-])c1cc(Cl)cc(C2=NCCN2)c1	–	7.49	–
COc1ccc(NC(=O)C2(c3ccc(NC(=O)c4ccc(OC(C)=O)cc4)cc3)CCCC2)cc1	0.259 µM [falling, full curve, poor fit]	-23.4	–
CC(=O)Nc1ccc(-c2csc(Nc3cccc(C)n3)n2)cc1	2.59 µM [falling, single point]	-33.4	0.366 µM [falling, partial curve, poor fit]
Cc1ccccc1C(=O)N1CCC(C(=O)NC(C)c2ccc(-n3ccnc3)cc2)CC1 (centres undefined)	29.1 µM [rising, partial curve, poor fit]	30.2	18.4 µM [rising, partial curve, poor fit]
C/C(=N\NC(=S)NC1CCCCC1)c1c(F)cccc1F	–	48	13 µM [rising, partial curve, poor fit]
CCOc1ccc(/C=C/C(=O)c2c(O)cc(C)oc2=O)cc1	0.731 µM [falling, single point]	11.9	–

— PubChem BioAssay AID2685 (National Center for Advancing Translational Sciences (NCATS), 2010)
